Measurements taken from US10701928B2, “Method for animal tissue material disinfection and sterilization and corresponding animal tissue soak solution” (Beijing Ruijian Gaoke Biotechnology Co., Ltd., priority 2013, dated 2020).

Assay: Differential scanning calorimetry of the treated tissue matrix
Assay type: physicochemical
Conditions: Example 5: fresh porcine hide about 1 mm, treated 1-2 hours, washed with phosphate buffer

| SMILES | damage on the tissue matrix (DSC) |
| --- | --- |
| II [7.5% iodine solution, iodine] | different degrees of damage on the tissue matrix |
| CC(=O)OO [0.2% peracetic acid, peracetic acid] | different degrees of damage on the tissue matrix |

Some entries repeat one wording, which the source may state once for all of them.
